Measurements published in PMC6401487.
Results are given in words; binding and its absence hold for the method and conditions named. Binding seen in cells or lysates may run through a third protein. These calls come from enrichment with a bait or labelling near it, and not all partners need be listed. For some assays here: A no says only that the protein was not detected with the bait. Where a sequence is shown, tags or fusion partners need not be part of it.

T1: Ferredoxin 1 (Fd-1), encoded by TK1694, with C-terminal HA-His6 extension (Thermococcus kodakarensis) (UniProt Q977X3)
T1 sequence: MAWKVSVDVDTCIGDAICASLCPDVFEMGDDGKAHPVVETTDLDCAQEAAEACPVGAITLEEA

T2: Ferredoxin 3 (Fd-3), encoded by TK2012, with C-terminal HA-His6 extension (Thermococcus kodakarensis) (UniProt Q5JDE8)
T2 sequence: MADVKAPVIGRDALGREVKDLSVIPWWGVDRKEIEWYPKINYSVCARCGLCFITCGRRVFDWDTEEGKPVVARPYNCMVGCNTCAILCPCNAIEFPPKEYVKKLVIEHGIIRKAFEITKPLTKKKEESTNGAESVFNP

B1: Ferredoxin:NADH oxidoreductase, β subunit (TK1685) (protein, UniProt Q5JIY6 1-284)
chain: MGYKITAKENLSVIDFFMEVEAPHVARSWKPGQFIVLIVDEKGERVPMSVYYADKDTGRVGMFIRRHGVTTFKLWYEKQVGDELLSVAGPLGKPIEVKHYGNVVFAADAVCAQAECYATLKAMKEAGNYTIAIHSFETKDHVYPEKFLSKPVADEFYITTEDGSVGRKGHYLDVLKELIEQDKVDIVFAGGKLGSLKKLAELTRPYGIPTITTVRQIMVDGTGMCGSCRILYDGEVKFACRDGPMFDAHKVDWDDVIRRDSRFAEQQALARERYLAKLREKGVI
B2: Peroxiredoxin (TK0537) (protein, UniProt Q5JF30 1-216)
chain: MVVIGEKFPEVEVKTTHGVIKLPDYFAEQGKWFVLFSHPADFTPVCTTEFYAMQKRVDQFRELGVEPIGLSVDQVFSHIKWMEWIKENLGEEITFPVIADDRGELADKLGMIPSGATITARAVFIVDDKGIIRAIVYYPAEVGRDWDEILRLVKALKVSDEKGVALPHKWPNNELIGDKAIVPPASTVDEVKQREEAKAKGEIECYDWWFCYKKLE
B3: Pyruvate:ferredoxin oxidoreductase, δ subunit (protein, UniProt Q5JIJ8 1-105)
chain: MAESPFKADIERVQKEYSEKMTPGAIAYIPGSSVINKTGSWRVFMPEFNRDKCTRCYLCYIYCPEPAIYLDEEGYPVFDYDYCKGCGICANECPVDAIVMVRETK
B4: 2-Oxoisovalerate:ferredoxin oxidoreductase, β subunit (protein, UniProt Q5JIJ9 1-311)
chain: MEIPEQIKKKLTLPAEEHFYAGHTACQGCGAALGLRYVLKAYGRKTIFAIPACCSTIIAGAWPYNTLGANLFQTAFETTGAVLGGIEAALKARGIKVKGEDGVMIVGWAGDGGTADIGLQALSGFLERGHDALYIMYDNEAYMNTGIQRSSSTPYGAWTTNTPGGKRHFLEKRHKKKVIDIVIAHEIPYAATASVAYPEDFIRKLKTAQKTPGPSFIQLFAPCPTGWRSPTDKSIEIARLAVQTAYFPLFEYKEGKYRINMPNPKKEPKPIEEFLKLQGRFKYMTKEDIQVLQEWVLREWEKLKKLAEVFG
B5: 2-Oxoisovalerate ferredoxin oxidoreductase, γ subunit (protein, UniProt Q5JIK2 1-185)
chain: MIEIRFHGRGGQGAVTAANILASAAFKEGKYVQAFPFFGVERRGAPVTAFTRIDDKPIRIKTQIYEPDVVVVLDPSLLDTVDVTAGLKDGGIVIVNTEKSKEEVLEKLKKKPGKLALVDATGIALEILGLPITNTAILGAVAKATGLVKLESVQEAIKETFSGALGEKNAKAAEEAFNKTVVYEL
B6: Ferredoxin:NADH oxidoreductase, α subunit (TK1325) (protein, UniProt Q5JGT0 1-481)
chain: MPRRKLIKERVPTPERPPEERIKDFKEVNLGYTFELAVKEAERCLQCPYEYAPCIKGCPVHINIPGFISKLVEYRDDPDKAVKEALNVIWACNSLPATTGRVCPQEDQCEMNCVMGKVGDKINIGKLERFVADYAREKGIDEELLFEIIPKIEKKGQKVAIIGAGPAGLTAAGELAKLGYDVTIYEALHEPGGVLMYGIPEFRLPKEIVNKEIEKLRKLGVKILTDHVVGRTVTIEELLQEYDAVFIGSGAGTPRLINAPGINLNGIYTANEFLTRVNLMKAYLFPEYDTPVYVGKKVIVIGAGNTAMDAARSARRFGAEVTIAYRRGEEDVSAREEEVEHAKEEGIKFVYFVNPVEFIGDENGRVKAVKFEKMKALDERDARGKRKIVGTGEYVTLEADTVIIAIGKHPNRLIINTPGLKVERGKIVVDENLMTSIPGVFAGGDAIRGEATVILAMGDGRKAAKAIHEYLTKKRQEKANA
B7: Pyruvate:ferredoxin oxidoreductase, α subunit (protein, UniProt Q5JIJ7 1-394)
chain: MPIRTVMKANEAAAWAAKLAKPKVIAAFPITPSTLVPEKISEFVANGELDAEFIKVESEHSAISACVGASAAGVRTFTATASQGLALMHEILFIAAGMRLPIVIAVGNRALSAPINIWNDWQDTISERDTGWLQFYAENNQEALDLILIAFKVAEDERVLLPAMVGFDAFILTHTVEPVEIPDQEVVDEFLGEYEPKHAYLDPERPITQGTLAFPAHYMEARYTVWEANENAKKVIDEVFAEFEKKFGRKYQKVEEYRTEDAEIIFVTMGSLAGTLKEYVDHLREKGLKVGAAKLTVYRPFPTEEVRELAKKAKVLALLEKNVTFSVGGALFQDFSRALVNLDERPKIVDFILGLGGRDVTFKDLDEALAIAQKALNGEEFDEVNWIGLRKEIL
B8: 2-Oxoisovalerate ferredoxin oxidoreductase, δ subunit (protein, UniProt Q5JIK1 1-105)
chain: MNTLFGEKKAEAKKIVLTSVDQYPEAPISLGTTLSNFTGDWRTFIPVVNEDKCVKCYICWKFCPEPAIYIKPDGYVAIDYDYCKGCGICANECPTKAITMEKEEK
B9: Rubrerythrin-related protein (TK0650) (protein, UniProt Q5JF77 1-174)
chain: MVPPELEEGLPLEKMKDFSLEELLGMAIKAEIGARKFYESLAERIDIQELKEKIEWLAGEEKKHEELLRKIYANMFPGKEVVFPKEHIGPELQPVARKLNGVQDIIDLIRWAMKAEEIAAQFYAKLEEMVDTEEKKRLMRYLSDMEWGHYYNLKAEYELLLDWEMYGQMMHVGP
B10: Ferredoxin:NADH oxidoreductase, β subunit (TK1326) (protein, UniProt Q5JGS9 1-291)
chain: MPYKILDKKELAMNEVWYKIHAPHVAKKVQPGQFVIVRAFPNGERIPLTPVTWDREEGWITLITFVRGKTTMRMANELKPGDEILNVAGPLGNPAPMEKFGRVLAIGLITGIVEVFPIARAWQEIGNEVTTLHVSPNPMVILREEFEQSVSRHIVEGFDLQPGWGMNEIAQELVKRATAKVRELLENEHFDMVLTVGPAGGQKAIFNVVKEYGIPMHADLHPIMVDATGMCGACRVTVGGEVKFACIDGPGFDAYKVDWDELIHRTGFYAPLERLALEHYLKQLQAQGGEQ
B11: Ferredoxin:NADP oxidoreductase, α subunit (TK1684) (protein, UniProt Q5JIW7 1-481)
chain: MAVRRKLIKERVPTPEVPVEERIKSFVEVNLGYDFASAVKEAERCLQCPVEYAPCIKGCPVHINIPGFISKLVEYRDNPDKAVREALRIIWNDNTLPAVTGRVCPQEDQCEGVCVMGKVGDPINIGKLERFVADYARKHGIEEELLCEFEERCTGELGKVAVVGAGPAGLTAAGELAKMGYKVTIFEALHKPGGVLAYGIPEFRLPKEILDQELAKLKRLGVEIRTDHVVGRTVTIEELLQEYDAVFIGTGAGTPKLLNVPGILLDRIYSANEFLTRVNLMKAYEFPEYDTPIAIGKKTIVIGAGNTAMDAARSALRLGSEVTIAYRRGREDMTARIEEIKHAEEEGVKFEFFLQPVEFIGDENGRVKAVKFEKMRPLDERDARGKRKIVGTGEYVTLEADTVIIAIGLEPNRIITETPGLKTNTNGTLVVDENLMTSIPGVFAGGDAIRGEATVILAMGDGKKAAKAIHEYIQAKRKANA
B12: Geranylgeranyl hydrogenase (protein, UniProt Q5JE27 1-395)
chain: MTWKYDVVVVGSGIAGPIVARNVAKAGFSVLLIDKKWAIGTPKQCAEAISIKVFDKYDIPYDKRFINREIYGAKLYSPSGYELEMRYKEVSGVILERKVFDKMLAYYAAKAGADVLARTEALDVIRKDGKIVGIKAKHEDEPVEIYADIIVAADGVESTIARKAGINTYAPPHEFDSGYEYEMLIEGFDPDLIHLWFGNEVAPRGYVWVFPKDEDRANVGIGINSDNPKTAKYYLDKWLEENNIPAKKLLEINVGLIPVGGFVKELAKDNVVVVGDAARQVNPMHGGGMAEAMEAGTIASKWIVKALEEENLSLLQNYTKEWWETDGKRLEKVLKVRRVTEKLTDEDLDLFIQILSGADAEKIASGDYAEVIKALLKHPKVLMSKRRLSLLKELL
B13: Ferredoxin 3 (Fd-3), encoded by TK2012, with C-terminal HA-His6 extension (protein, UniProt Q5JDE8 1-138)
chain: T2 sequence
B14: 2-Oxoacid:ferredoxin oxidoreductases, α subunit (protein, UniProt Q5JE85 1-396)
chain: MIIRGDEPEQIRLIKKLYKPGNYFMQGNEAVAYGAIFAGCRFYAGYPITPSSEIAETMARELPKLGGYYLQMEDEIGSIAAMVGASWTGLKVMTATAGPGFSLMQENLGYAVMTETPLVLVDVQRSGPSTGQATKGAQGDFFQARWGTHGDHPIIALSPTSGQDAFWEIIRAFNIAERLRTPVVMLFDGVLAHTRELVKIPDVEEVEITYRKLPQNEEEARLPFGDPHGDGVPPMPLFGHGYFTHVTGSTHKENGLRDVYTPEVHDRLVRRLHRKIEQNRHVYEKYEEYFTDDAEILVVSWGVTARPALGAVLKAREEGIKAGLFVPKTVHPFPGERMRALGKKVRAVLVPEMNLGQMILEVQRYVNDDVLLKGVNKIGGVPLTVNEILREIRGVA

These binders were tested against T1, Ferredoxin 1 (Fd-1), encoded by TK1694, with C-terminal HA-His6 extension (Thermococcus kodakarensis) (assay: affinity purification with mass spectrometry; C-terminally HA-His6-tagged Fd made from its own genomic locus; clarified lysates of cultures grown with S0 or without S0 (pyruvate); Ni2+-charged chelating column at 4 °C in 25 mM Tris-HCl pH 8.0, 500 mM NaCl, 10% glycerol; linear imidazole gradient; pooled Fd-containing fractions analysed by MuDPIT; proteins also found in equivalent fractions of parental strain TS559 subtracted).

Binder	binding
B1	binds
B2	binds
B3	binds
B4	binds
B5	binds
B6	binds
B7	binds
B8	binds
B9	binds
B10	binds
B11	binds
B12	no binding
B13	no binding

Each binder was assayed against T2, Ferredoxin 3 (Fd-3), encoded by TK2012, with C-terminal HA-His6 extension (Thermococcus kodakarensis) in the same assay as above.

Binder	binding
B2	binds
B3	binds
B4	binds
B5	binds
B7	binds
B8	binds

Target: T2, Ferredoxin 3 (Fd-3), encoded by TK2012, with C-terminal HA-His6 extension (Thermococcus kodakarensis)
Assay: as above
Remark: another data set of the same source

Binder	binding
B14	no binding
